The campaign covered roughly 360,000 compounds. About 7,500 (2.1%) were called active. The shares of active, inactive and inconclusive entries below differ from those in the screen. Calls follow the shape of the dose curve; as a rule, active = well fitted inhibition curve with a large enough effect; inconclusive = small, poorly fitted or top-dose-only effect, or effect the other way; inactive = flat fitted curve, though single readings scatter. Where the call is inconclusive, the potency comes from a doubtful curve fit.
experiment: Nrf2 qHTS screen for inhibitors; settings: A549 ARE-Fluc reporter, luciferase luminescence, 18-24 h; series mostly up to 46 µM; also: nearly all actives have a fitted effect of over 60% in size
Method in brief: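 Reporter: ARE-Fluc in A549. Exposure: 18-24 h, 37 °C, 5% CO2, 5% FBS OPTI-MEM. Readouts: fluorescent cytotoxicity (CellTiter-Fluor), then luminescent Nrf2 signal after BugLite.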
Potency is read from the fitted curve at half-maximal effect.

Compound | Potency
Clc1ccccc1-c1nn2c(-c3ccncc3)nnc2s1 | active: 8.2 µM
O=C(NCCc1csc(-c2ccccc2)n1)c1ccc(Br)o1 | inactive
C=C(C)Cn1c(=O)c2c(nc3n2CCCN3Cc2ccccc2)n(C)c1=O | inconclusive: 29.1 µM [falling, single point]
CC(C)Sc1nc(NCc2ccco2)c2c3c(sc2n1)COC(C)(C)C3 | inconclusive: 6.51 µM [activator, single point]
OC(COc1ccc(Br)cc1)CN1CCN(c2ccccc2)CC1 (stereo not drawn) | inactive
CCOC(=O)N1CCN(C(=O)CN2C(=O)/C(=C\c3cccc(OC)c3)SC2=S)CC1 | inactive
Cc1cc(C)c2c(N)c(C(=O)NNC(=O)c3ccccc3)sc2n1 | inconclusive: 29.1 µM [activator, single point]
CCCCCC(=O)Nc1cc2[nH]c(=O)cc(COC)c2cc1C | inconclusive: 4.11 µM [falling, full curve, poor fit]
O=[N+]([O-])c1cccc(NC(=S)NCCc2ccccc2)c1 | inconclusive: 32.6 µM [falling, single point]
Cc1ccc(S(=O)(=O)NCCC(=O)NC2CCCCCC2)cc1 | inconclusive: 14.6 µM [falling, partial curve, poor fit]
CCOC(=O)Nc1ccc(S(=O)(=O)N(C)C(C)C)cc1 | inconclusive: 4.11 µM [activator, full curve, poor fit]
O=C(O)CC(c1ccccc1)N1C(=O)c2cccc([N+](=O)[O-])c2C1=O (stereo not drawn) | inactive
COc1cc(OC)c(NS(=O)(=O)c2cccc(C(=O)OCC(=O)NCC3CCCO3)c2)cc1Cl (stereo not drawn) | inactive
Cc1ccc(-c2nc3ccccc3s2)cc1NC(=S)NC(=O)c1cccc2ccccc12 | inconclusive: 2.59 µM [activator, partial curve]
CCOC(=O)C1CCN(S(=O)(=O)c2ccc3c(c2)CC(C)N3C(=O)C2CC2)CC1 (stereo not drawn) | inactive
COc1ccc(C(=O)NCCn2cc(SCC(=O)Nc3cccc(C)c3)c3ccccc32)cc1 | inconclusive: 20.6 µM [falling, single point]
O=C(Nc1ccn(Cc2ccccc2F)n1)c1ccc(COc2ccc(Cl)cc2Cl)o1 | active: 25.9 µM
Cc1ccc(C(=O)N2CCN(c3ccc(NC(=O)c4ccc5c(c4)OCCO5)cc3)CC2)cc1 | active: 7.31 µM
COc1ccc2[nH]c3c(NCCCOC(C)C)ncnc3c2c1 | inactive
CCCCOc1ccc(/C=N/NC(=O)c2csc(C)c2C)cc1 | inconclusive: 0.0065 µM [falling, full curve, poor fit]
Nc1ccccc1N=Nc1ccccc1N | inconclusive: 20.6 µM [activator, single point]
CCOCCCNC(=O)NC(C)c1c(-n2cccc2)sc2c1CCN(CC)C2 (stereo not drawn) | inconclusive: 11.6 µM [activator, partial curve, poor fit]

Of the compounds above, 2 contain a nitro group on carbon.
Compound | Potency
O=[N+]([O-])c1cccc(NC(=S)NCCc2ccccc2)c1 | inconclusive: 32.6 µM [falling, single point]
O=C(O)CC(c1ccccc1)N1C(=O)c2cccc([N+](=O)[O-])c2C1=O (stereo not drawn) | inactive

Going on with the list:

Compound | Potency
O=C(CNC(=O)c1ccc(S(=O)(=O)N2CCCC2)cc1)N/N=C/c1c(Cl)cccc1Cl | inconclusive: 23.1 µM [falling, partial curve, poor fit]
COc1cc(OC)cc(-c2nc(-c3ccccc3OC)no2)c1 | inactive
N#C/C(=C\c1c(N(Cc2ccccc2)Cc2ccccc2)nc2ccccn2c1=O)C(N)=O | inactive
CCCC1CCC(c2ccc(C(=O)NN)cc2)CC1 (stereo not drawn) | inconclusive: 20.6 µM [falling, single point]
CCCN1C(=O)c2ccccc2NC1c1ccc(OC)c(COc2ccc([N+](=O)[O-])c(C)c2)c1 (stereo not drawn) | inconclusive: 20.6 µM [falling, partial curve, poor fit]
C/C(=N\NC(=O)c1cc(-c2ccc(C)s2)[nH]n1)c1ccncc1 | inconclusive: 25.9 µM [activator, single point]
O=C(c1ccc2c(c1)N(Cc1ccccc1F)C(=O)c1ccccc1S2(=O)=O)N1CCCCC1 | inconclusive: 23.1 µM [falling, partial curve]
Cc1ccccc1OCC(=O)Nc1ccc2c(c1)ncn2C | inconclusive: 2.91 µM [activator, full curve, poor fit]
Fc1ccc(C2=NN(c3ccccc3)C(c3ccco3)C2)cc1 (stereo not drawn) | inactive
C[C@]12C[C@H](O)[C@H]3[C@@H](CCC4=CC(=O)CC[C@@]43C)[C@@H]1CC[C@@H]2C(=O)CO | active: 0.411 µM
CCc1ccc(C(=O)c2cn(CC(=O)NCCc3ccc(OC)c(OC)c3)c3nc(C)ccc3c2=O)cc1 | inconclusive: 0.184 µM [activator, full curve, poor fit]
CC1CC(=O)Nc2ccccc2N1C(=O)COc1ccc2cc(Br)ccc2c1 (stereo not drawn) | inconclusive: 29.1 µM [falling, partial curve, poor fit]
O=S1(=O)CCOC[C@H](CC2CCCCC2)N1Cc1ccccc1F | inactive
COC(=O)c1ccc(N2CCOCC2)c(NC(=O)c2cccnc2)c1 | inconclusive: 3.66 µM [falling, full curve]
CCOc1ccc(OCc2cccc(C(=O)N(CC)CC)c2)cc1 | inconclusive: 0.146 µM [activator, full curve, poor fit]
Cn1ccc(C(=O)Nc2ccc(Br)cc2Br)n1 | inconclusive: 9.2 µM [activator, partial curve]
Cc1cccc(Nc2nc(N)c([N+](=O)[O-])c(N3CCC(C)CC3)n2)c1 | active: 18.4 µM
O=C(C1CCN(c2nnc(-n3cccc3)s2)CC1)N1CCN(c2cccc(C(F)(F)F)c2)CC1 | inconclusive: 32.6 µM [falling, single point]
CCC(=O)N1CCN(c2ccc(NC(=O)c3ccc([N+](=O)[O-])o3)cc2Cl)CC1 | inconclusive: 0.58 µM [activator, full curve, poor fit]
O=C(N/N=C/c1cn(Cc2ccccc2)c2ccccc12)c1cccnc1 | inconclusive: 23.1 µM [falling, single point]
COc1ccccc1C(=O)COC(=O)c1ccccc1OCC(=O)Nc1ccc(SC(F)F)cc1 | inconclusive: 25.9 µM [falling, partial curve]
